# Measured values reported in PMC10411477.
# Sequences of proteins named here, by UniProt entry; tags and fusion partners are left off.
# UniProt Q13153: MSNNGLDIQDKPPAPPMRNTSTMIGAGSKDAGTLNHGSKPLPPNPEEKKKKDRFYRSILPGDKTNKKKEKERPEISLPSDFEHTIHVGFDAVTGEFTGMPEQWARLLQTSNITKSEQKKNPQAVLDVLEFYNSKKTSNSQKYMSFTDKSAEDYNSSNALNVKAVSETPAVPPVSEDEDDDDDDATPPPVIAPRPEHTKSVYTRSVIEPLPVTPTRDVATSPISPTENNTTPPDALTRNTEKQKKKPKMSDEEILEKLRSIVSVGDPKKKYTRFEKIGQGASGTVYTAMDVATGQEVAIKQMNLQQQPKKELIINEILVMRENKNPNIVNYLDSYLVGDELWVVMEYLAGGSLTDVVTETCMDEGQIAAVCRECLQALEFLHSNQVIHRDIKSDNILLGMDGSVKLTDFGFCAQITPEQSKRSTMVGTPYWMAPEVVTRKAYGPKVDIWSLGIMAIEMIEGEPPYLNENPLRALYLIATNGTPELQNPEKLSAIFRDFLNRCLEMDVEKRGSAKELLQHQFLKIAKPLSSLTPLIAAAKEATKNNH
# UniProt P51692: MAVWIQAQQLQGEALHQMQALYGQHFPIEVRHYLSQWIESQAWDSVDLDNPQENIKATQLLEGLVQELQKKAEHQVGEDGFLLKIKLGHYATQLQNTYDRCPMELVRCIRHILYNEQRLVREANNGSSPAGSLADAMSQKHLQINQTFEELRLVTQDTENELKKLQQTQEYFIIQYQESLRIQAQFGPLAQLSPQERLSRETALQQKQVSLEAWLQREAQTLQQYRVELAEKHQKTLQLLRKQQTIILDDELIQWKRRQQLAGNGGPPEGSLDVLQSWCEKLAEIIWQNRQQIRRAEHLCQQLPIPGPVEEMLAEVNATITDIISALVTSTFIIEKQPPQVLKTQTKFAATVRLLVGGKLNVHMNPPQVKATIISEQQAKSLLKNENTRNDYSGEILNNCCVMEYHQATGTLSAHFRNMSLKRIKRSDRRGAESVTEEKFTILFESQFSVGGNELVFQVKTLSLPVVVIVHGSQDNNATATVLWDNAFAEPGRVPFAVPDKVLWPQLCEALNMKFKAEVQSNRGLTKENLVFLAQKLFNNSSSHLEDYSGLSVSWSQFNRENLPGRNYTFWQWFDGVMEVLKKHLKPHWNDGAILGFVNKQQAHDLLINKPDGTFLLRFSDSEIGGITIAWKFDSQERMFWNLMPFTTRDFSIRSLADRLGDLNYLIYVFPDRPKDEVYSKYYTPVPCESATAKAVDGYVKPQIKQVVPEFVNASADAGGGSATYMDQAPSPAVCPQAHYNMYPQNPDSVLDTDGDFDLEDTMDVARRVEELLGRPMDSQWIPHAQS
# No constants are given. Whether binding was seen depends on the method and setting. Binding seen in cells or lysates may run through a third protein. Some results given as binding are weak or reduced against the parent protein; the word gives no strength.
# Target: PAK1, p21 (RAC1) activated kinase 1 (human (endogenous in OH931, NMFH1 and NMFH2)) (UniProt Q13153)
# Assay: co-IP; total cell lysates of parent OH931, NMFH1 and NMFH2 cells; anti-PAK1 (Cell Signaling) cross-linked with DMP to Dynabeads Protein G; eluates probed by western blot
substance,measurement,value
"STAT5B, signal transducer and activator of transcription 5B (from UniProt P51692 1-787)",binding,binds
